{"source": "PubChem BioAssay AID1347423", "about": "(Functional Genomics Laboratory (NCATS/FGL), 2020)", "note": "The whole screen tested about 52,000 sequences, of which about 210 (0.4%) were called active.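 How the source made its calls: active means gene whose silencing raises cell survival under the drug, median off-target-corrected z-score across its silencing RNAs 2 or more; inactive means the rest.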 This is one part of the list."}
{"assay": "Resistance to Poly (ADP-Ribose) Polymerase inhibitor: Gene Identification via Genome-wide siRNA Screen", "settings": "mouse BRCA2 R2336H ES cells, olaparib, CellTiter-Glo viability; hits give high values", "outline": "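Genome-wide siRNA screen (3 siRNAs/gene, 20 nM) in mouse ES cells carrying hypomorphic BRCA2 R2336H; olaparib 500 nM added 48 h post-transfection, CellTiter-Glo viability 72 h later. Normalized to plate-median negative control; MAD z-scores, gene median, seed-adjusted.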"}
{"sequence": "CCAGUGGUAUGAGGUUGAATT against Cpne3", "z-score": "inactive: 0.326"}
{"sequence": "GGCUAUUUUUCAGGUUCCUTT against Olfr747", "z-score": "inactive: -1.01"}
{"sequence": "CCCACAUAAAUAAGUUGGUTT against Olfr996", "z-score": "inactive: -2.59"}
{"sequence": "CGUGAGCAGUCAAACCCAGTT against Il27ra", "z-score": "inactive: 0.605"}
{"sequence": "GGUUGAGGACAUAAGACCCTT against 4932416A11Rik", "z-score": "inactive: 1.73"}
{"sequence": "GGCCACCAUUUCUGAAAUCTT against Gpsn2", "z-score": "inactive: 0.287"}
{"sequence": "CGGAUGUUCGUGUUAAAAATT against Plek", "z-score": "inactive: 0.211"}
{"sequence": "GGAAAAAUAGGGUGUUUUGTT against Tdg", "z-score": "inactive: 3.39"}
{"sequence": "CCCUGAUCAUGUUUUGUCCTT against Mrps24", "z-score": "inactive: 1.44"}
{"sequence": "GGCGAGUUCUACAGUUACUTT against Cherp", "z-score": "inactive: -1.36"}
{"sequence": "GGAAGUCAGUAAUCCUCUGTT against 2410146L05Rik", "z-score": "inactive: -1.38"}
{"sequence": "CGAAUCACUGCUGUUCCAUTT against 5830411N06Rik", "z-score": "inactive: -0.301"}
{"sequence": "GCUCCAAGCUUCUCUAUAGTT against V1rh7", "z-score": "inactive: 0.708"}
{"sequence": "GGUCUCCUGAUGGAGAAGATT against Muc5b", "z-score": "inactive: -0.954"}
{"sequence": "UGUUUGGGCCCAAAGGCUUTT against Crip1", "z-score": "inactive: 0.236"}
{"sequence": "GGGAAGAAAUCAACGAUAATT against Gpa33", "z-score": "inactive: 0.809"}
{"sequence": "GGUUCAGAAAUUUGUCAACTT against Nola2", "z-score": "inactive: 0.233"}
{"sequence": "GAUCAAGGACCGGUACCUGTT against Lmo1", "z-score": "inactive: -0.211"}
{"sequence": "GGUCAUUUUGCAUGAUGUCTT against Trpv3", "z-score": "inactive: 0.235"}
{"sequence": "GGAGAAAUCCCUUCACGGUTT against Mas1", "z-score": "inactive: 0.0872"}
{"sequence": "GGAAAAUCAACUUCACAAATT against Shox2", "z-score": "inactive: 0.348"}
{"sequence": "GGAACAGGUAAAGAUCCCATT against Repin1", "z-score": "inactive: 0.768"}
{"sequence": "GGGUGUAGUCCUGAAAGUATT against Arpc5l", "z-score": "inactive: 1.34"}
{"sequence": "GGUGAUGAAGUGCGUCCUGTT against Chga", "z-score": "inactive: -0.577"}
{"sequence": "CGUGCUUUAUUGGAUCUGATT against Thedc1", "z-score": "inactive: 0.466"}
{"sequence": "GCUUUAAUUGUGAAAGCACTT against C030011O14Rik", "z-score": "inactive: -0.849"}
{"sequence": "GGACUUAUCAAGCUGGUUUTT against Rps25", "z-score": "inactive: -2.47"}
{"sequence": "CGUGGCUCACAAUAAAUGCTT against Adn", "z-score": "inactive: 0.527"}
{"sequence": "GGCUACGUGUCAAUAGACATT against Pscd2", "z-score": "inactive: -0.455"}
{"sequence": "GGAAUAGGGAGGUAACCAGTT against Olfr1394", "z-score": "inactive: -0.841"}
{"sequence": "CCUGAGAUGUUUCAACUGCTT against Plekha3", "z-score": "inactive: -0.207"}
{"sequence": "GGAGGACGUAACUAAAUCATT against Mbldc1", "z-score": "inactive: 0.913"}
{"sequence": "GCUCACCAAUGAAAUUAAUTT against Xpo7", "z-score": "inactive: 1.19"}
{"sequence": "GCUAAGAAACGGAAUUUGGTT against Adam7", "z-score": "inactive: -0.312"}
{"sequence": "GGACUCAAGCAGAUGGUAUTT against 1700018B08Rik", "z-score": "inactive: 0.129"}
{"sequence": "CCGGUGAACCCUAUAAAUATT against AI324046", "z-score": "inactive: 1.39"}
{"sequence": "GCUACCUGUAUUUAUCUCCTT against Centa1", "z-score": "inactive: -0.219"}
{"sequence": "GGCUUGGUGAGCUACCUACTT against 2310038K02Rik", "z-score": "inactive: 1.66"}
{"sequence": "GGAGAAAGCUCGAAAAUGGTT against Prpf8", "z-score": "inactive: -1.86"}
{"sequence": "GGUUUCCUGAAGUUUUCAATT against Gnaz", "z-score": "inactive: -0.422"}
{"sequence": "GCAGCAUCCUGUUUCAUUGTT against 6430573F11Rik", "z-score": "inactive: 0.228"}
{"sequence": "GGGCAUCCUGGAUCAUCAUTT against Nalp6", "z-score": "inactive: -0.497"}
{"sequence": "GCCAAUAUUUGUUUUUGAGTT against C130037N17Rik", "z-score": "inactive: 0.747"}
{"sequence": "GCAUGAAUUUUGCACGGACTT against Rad18", "z-score": "inactive: 0.165"}
{"sequence": "GGUUCAUCUUCAGCCAUCCTT against E030027H19Rik", "z-score": "inactive: -2.61"}
{"sequence": "GUCUCUCUUUUAACAUGCUTT against Ceacam13", "z-score": "inactive: 2.49"}
{"sequence": "GGGUUUCCAAGAAGGAAGCTT against AA408296", "z-score": "inactive: 0.738"}
{"sequence": "GGCUGACUACAAUUUAAUCTT against Slitrk4", "z-score": "inactive: 0.0423"}
{"sequence": "GGCCAUGAAUCUUGUUGGGTT against Sgne1", "z-score": "inactive: -1.47"}
{"sequence": "GGUGGUGUCGGAUUUGAUATT against D10Wsu52e", "z-score": "inactive: -1.86"}
{"sequence": "CCCUGUACACAGAAGGACATT against Tmem15", "z-score": "inactive: -0.551"}
{"sequence": "GGCUGGAAGACAAAACUCCTT against Lmo6", "z-score": "inactive: -0.83"}
{"sequence": "GGAAAAUUGGUACCAACUUTT against 1300002C08Rik", "z-score": "inactive: -0.242"}
{"sequence": "GGGAAUUUACUGCAGGAUATT against Itln2", "z-score": "inactive: -0.711"}
{"sequence": "GGUUGACACAGAUGAAGAGTT against Rdh9", "z-score": "inactive: -0.356"}
{"sequence": "GGAGAAACAGCCUAAGAAGTT against Pacsin1", "z-score": "inactive: 2.69"}
{"sequence": "CGAUGGUCUAAGUGAAGCGTT against 2810002O09Rik", "z-score": "inactive: -1.41"}
{"sequence": "GCCUUGAAAUGUCUGUAGCTT against Nkiras1", "z-score": "inactive: 0.46"}
{"sequence": "GGCUGAUUUGCAUAUCGGGTT against Ethe1", "z-score": "inactive: -0.725"}
{"sequence": "GGAAUUCACAUUUGACUGUTT against D230002A01Rik", "z-score": "inactive: -0.639"}
{"sequence": "GGUGUACCAUAGAUGAUCGTT against 3732419F12", "z-score": "inactive: -0.886"}
{"sequence": "GCAAGAACAGCCCUUUCACTT against Ncf4", "z-score": "inactive: 0.0626"}
{"sequence": "GCCAUAUUGAGGUGAAAGATT against Tnc", "z-score": "inactive: 1.17"}
{"sequence": "GUGACCACUCUGCCAAUUGTT against Olfr1255", "z-score": "inactive: -0.513"}
{"sequence": "GGCGGAUCAGCUGUAUAAGTT against Pdha1", "z-score": "inactive: -0.318"}
{"sequence": "GGAAACUUAAGCAAAUUCUTT against Gprc6a", "z-score": "inactive: 0.294"}
